Results deposited as PubChem BioAssay AID504764 (Drosophila RNAi Screening Center, 2011)

- Aim: 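Genome-wide screen for regulators of Notch-driven gene expression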 (primary screen)
- Cells: Drosophila Kc167 cells
- Knock-down reagent: long dsRNA against Drosophila genes
- Time to read-out: about 5 days (4 days dsRNA, then 24 h after transfection)
- Conditions: transfection of constitutively active membrane-tethered Notch lacking the extracellular domain, read 24 h later
- Read-out: 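Firefly luciferase from an E(spl)m3 reporter with active Notch, plus control-promoter and uninduced reporter wells for normalisation; unnormalised counts, duplicate wells a and b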
- Reading the numbers: induced reporter light, run 1, well a and induced reporter light, run 1, well b: higher = more light from the Notch target reporter with active Notch; control promoter light, run 1, well a and control promoter light, run 1, well b: higher = more light from the viral control promoter (cell number, transfection, viability); uninduced reporter light, run 1, well a: higher = more light from the Notch target reporter without active Notch
- Active means: 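Wells with low control signal or poorly matching duplicates excluded; duplicates averaged; per source plate, z beyond ±2 for induced/control log2 ratio or beyond ±1.8 for induced/uninduced marks a hit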
- Calls: active = modifier hit (raised or lowered Notch signal); inactive = not a hit
The screen tested about 22,000 reagents; this is an unselected part of those that have a named target and a result. Over the whole deposit, 403 (1.9%) are marked active. 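Unnormalised raw counts per well; ratio z-scores behind the hit calls and whether each hit raises or lowers signal are not deposited.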 Reagents against one gene are numbered here. No sequences are given here. Not stated in the record: the amount of reagent.

gene knocked down | reagent no. | induced reporter light, run 1, well a | induced reporter light, run 1, well b | control promoter light, run 1, well a | control promoter light, run 1, well b | uninduced reporter light, run 1, well a | call
prg (piragua) | 1 | 1.47e5 | 2.00e5 | 1.25e5 | 1.83e5 | 23170 | inactive
CG13989 | 1 | 1.75e5 | 1.48e5 | 1.87e5 | 1.39e5 | 10590 | inactive
CG6607 | 1 | 1.37e5 | 1.27e5 | 1.47e5 | 1.41e5 | 10210 | inactive
dpr1 (defective proboscis extension response 1) | 1 | 1.02e5 | 1.27e5 | 1.32e5 | 1.31e5 | 8982 | inactive
dpr1 (defective proboscis extension response 1) | 2 | 1.27e5 | 1.48e5 | 1.78e5 | 2.05e5 | 7250 | inactive
Asap (ArfGAP with SH3 domain, ankyrin repeat and PH domain) | 1 | 1.93e5 | 1.65e5 | 2.24e5 | 1.69e5 | 14278 | inactive
Asap (ArfGAP with SH3 domain, ankyrin repeat and PH domain) | 2 | 1.76e5 | 1.72e5 | 1.66e5 | 1.50e5 | 14235 | inactive
CG14074 | 1 | 1.67e5 | 1.25e5 | 2.50e5 | 1.90e5 | 11670 | inactive
csw (corkscrew) | 1 | 1.13e5 | 1.23e5 | 1.03e5 | 1.15e5 | 8780 | active
Ktl (Kctd12-like) | 1 | 1.73e5 | 1.59e5 | 2.31e5 | 2.59e5 | 14640 | inactive
sra (sarah) | 1 | 2.33e5 | 2.00e5 | 2.26e5 | 2.37e5 | 18555 | inactive
CG32733 (retired record) | 1 | 73900 | 73775 | 65015 | 51795 | 7350 | inactive
RpL39 (Ribosomal protein L39) | 1 | 1.53e5 | 1.32e5 | 1.37e5 | 1.28e5 | 10530 | inactive
mldr (mulder) | 1 | 1.48e5 | 1.42e5 | 2.64e5 | 1.97e5 | 11300 | inactive
polo | 1 | 1.17e5 | 1.35e5 | 71330 | 61005 | 6870 | inactive
SecS (Sec synthetase) | 1 | 1.17e5 | 1.15e5 | 97765 | 96510 | 6020 | inactive
ATPsynGL (ATP synthase, subunit G-like) | 1 | 1.27e5 | 1.43e5 | 83995 | 1.15e5 | 20920 | inactive
Kr-h2 (Kruppel homolog 2) | 1 | 60670 | 50050 | 48320 | 66700 | 3592 | inactive
Ugalt (UDP-galactose transporter) | 1 | 1.21e5 | 1.29e5 | 2.10e5 | 2.10e5 | 10565 | inactive
Cp7Fc (Chorion protein c at 7F) | 1 | 1.70e5 | 1.40e5 | 2.15e5 | 2.05e5 | 11490 | inactive
Nse4 (Non-SMC element 4) | 1 | 1.40e5 | 2.02e5 | 87480 | 1.34e5 | 20230 | inactive
CG31176 | 1 | 1.87e5 | 1.36e5 | 2.01e5 | 2.32e5 | 13875 | inactive
CG31176 | 2 | 1.81e5 | 1.33e5 | 1.83e5 | 1.96e5 | 9800 | inactive
Trf (TBP-related factor) | 1 | 1.86e5 | 1.95e5 | 1.09e5 | 1.31e5 | 27880 | inactive
CG30323 | 1 | 1.24e5 | 91900 | 1.18e5 | 1.46e5 | 6800 | inactive
CG6873 | 1 | 92210 | 1.13e5 | 1.17e5 | 1.33e5 | 9920 | inactive
CG14219 | 1 | 85420 | 76685 | 1.66e5 | 1.32e5 | 10620 | active
CG18586 | 1 | 2.62e5 | 1.83e5 | 2.39e5 | 2.61e5 | 13250 | inactive
CG2841 | 1 | 72165 | 80750 | 1.02e5 | 89790 | 4960 | inactive
CG2841 | 2 | 1.03e5 | 1.15e5 | 1.91e5 | 1.74e5 | 7610 | inactive
bai (baiser) | 1 | 1.76e5 | 1.59e5 | 2.17e5 | 2.29e5 | 16540 | inactive
Echs1 (Enoyl-CoA hydratase, short chain 1) | 1 | 97980 | 1.17e5 | 1.41e5 | 1.35e5 | 11790 | inactive
CG5111 | 1 | 1.19e5 | 1.29e5 | 1.56e5 | 1.68e5 | 10370 | inactive
CG34228 | 1 | 2.47e5 | 2.00e5 | 2.22e5 | 2.32e5 | 23705 | inactive
DZIP1 | 1 | 1.52e5 | 1.72e5 | 1.96e5 | 2.12e5 | 11592 | inactive
qsm (quasimodo) | 1 | 1.07e5 | 1.30e5 | 1.57e5 | 1.48e5 | 8415 | inactive
qsm (quasimodo) | 2 | 1.38e5 | 1.71e5 | 2.23e5 | 2.62e5 | 9180 | inactive
Ldaf1 (Lipid droplet assembly factor 1) | 1 | 1.77e5 | 1.66e5 | 2.37e5 | 2.18e5 | 12235 | inactive
CG7896 | 1 | 1.89e5 | 2.01e5 | 2.80e5 | 2.52e5 | 16200 | inactive
Obp56d (Odorant-binding protein 56d) | 1 | 1.37e5 | 89495 | 1.15e5 | 97740 | 6730 | inactive
Mic26-27 (MICOS subunit 26/27) | 1 | 1.97e5 | 1.96e5 | 2.73e5 | 2.33e5 | 19925 | inactive
wus (wurst) | 1 | 1.28e5 | 1.17e5 | 1.05e5 | 58250 | 10975 | inactive
Snmp2 (Sensory neuron membrane protein 2) | 1 | 2.83e5 | 2.57e5 | 4.13e5 | 3.43e5 | 17740 | inactive
Snmp2 (Sensory neuron membrane protein 2) | 2 | 2.79e5 | 2.12e5 | 3.30e5 | 2.52e5 | 12140 | inactive
Sod3 (Superoxide dismutase 3) | 1 | 1.25e5 | 1.28e5 | 1.24e5 | 1.12e5 | 11995 | inactive
CG34337 | 1 | 1.19e5 | 1.27e5 | 2.19e5 | 1.95e5 | 8785 | inactive
MFS18 (Major Facilitator Superfamily Transporter 18) | 1 | 2.31e5 | 2.28e5 | 2.17e5 | 2.61e5 | 18555 | inactive
CG11293 (retired record) | 1 | 2.16e5 | 1.76e5 | 2.05e5 | 1.91e5 | 15150 | inactive
trpl (transient receptor potential-like) | 1 | 1.82e5 | 1.61e5 | 2.23e5 | 2.31e5 | 15520 | inactive
trpl (transient receptor potential-like) | 2 | 1.74e5 | 1.85e5 | 1.97e5 | 2.10e5 | 15728 | inactive
